Results on one molecule are retold here after paper PMC7316345.

Experiment [1] addresses T1, HA-tagged ABHD5 TBLC mutant (KRK233-235AAA) (human) (UniProt Q8WTS1).
T1 sequence: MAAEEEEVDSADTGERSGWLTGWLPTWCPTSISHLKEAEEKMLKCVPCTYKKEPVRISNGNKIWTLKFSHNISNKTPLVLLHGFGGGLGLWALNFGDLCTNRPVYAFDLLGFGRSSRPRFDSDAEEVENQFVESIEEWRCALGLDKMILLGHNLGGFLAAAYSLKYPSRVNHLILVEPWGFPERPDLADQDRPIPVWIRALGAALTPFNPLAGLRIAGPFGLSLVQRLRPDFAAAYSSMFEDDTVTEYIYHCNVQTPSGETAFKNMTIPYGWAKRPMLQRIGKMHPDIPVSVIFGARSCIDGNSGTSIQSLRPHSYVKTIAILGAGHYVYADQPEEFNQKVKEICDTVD
Put plainly: co-IP; HA-tagged ABHD5/ABHD4 variants precipitated on anti-HA agarose beads overnight from lysates (1% Triton X-100 in PBS) of co-transduced Lunet N hCD81 cells; ATGL detected by Western blot; cells treated overnight with 100 uM oleic acid. A general note: In western blotting, separated proteins are transferred to a membrane and probed.

Experiment [2] addresses T2, HA-tagged ABHD5 Q130P (Chanarin-Dorfman syndrome mutant) (human) (UniProt Q8WTS1).
T2 sequence: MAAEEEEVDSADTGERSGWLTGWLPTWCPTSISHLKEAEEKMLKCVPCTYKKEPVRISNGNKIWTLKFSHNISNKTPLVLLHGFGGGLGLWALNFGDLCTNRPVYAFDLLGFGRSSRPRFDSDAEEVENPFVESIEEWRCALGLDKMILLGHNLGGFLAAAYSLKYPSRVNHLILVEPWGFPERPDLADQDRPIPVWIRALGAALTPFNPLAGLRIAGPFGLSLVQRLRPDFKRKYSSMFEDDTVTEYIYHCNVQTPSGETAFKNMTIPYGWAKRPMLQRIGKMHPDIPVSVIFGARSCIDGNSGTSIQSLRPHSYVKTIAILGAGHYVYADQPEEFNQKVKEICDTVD
The experiment is described as above.

These are yes or no findings as the source states them, for the method shown. Binding seen in cells or lysates may run through a third protein. Some binding calls cover weakened binding; strength is not graded here. Where a sequence is shown, tags or fusion partners need not be part of it.

B1: ATGL S47A (catalytic site mutant), untagged (enzyme, UniProt Q96AD5-1 1-504)
chain: MFPREKTWNISFAGCGFLGVYYVGVASCLREHAPFLVANATHIYGAAAGALTATALVTGVCLGEAGAKFIEVSKEARKRFLGPLHPSFNLVKIIRSFLLKVLPADSHEHASGRLGISLTRVSDGENVIISHFNSKDELIQANVCSGFIPVYCGLIPPSLQGVRYVDGGISDNLPLYELKNTITVSPFSGESDICPQDSSTNIHELRVTNTSIQFNLRNLYRLSKALFPPEPLVLREMCKQGYRDGLRFLQRNGLLNRPNPLLALPPARPHGPEDKDQAVESAQAEDYSQLPGEDHILEHLPARLNEALLEACVEPTDLLTTLSNMLPVRLATAMMVPYTLPLESALSFTIRLLEWLPDVPEDIRWMKEQTGSICQYLVMRAKRKLGRHLPSRLPEQVELRRVQSLPSVPLSCAAYREALPGWMRNNLSLGDALAKWEECQRQLLLGLFCTNVAFPPEALRMRAPADPAPAPADPASPQHQLAGPAPLLSTPAPEARPVIGALGL
In the case of B1, the figures for the binding result in experiment [1] and in experiment [2] were “binds” and “no binding”, respectively.
